No constants are given. Whether binding was seen depends on the method and setting. For some of these results: Binding seen in cells or lysates may run through a third protein. For some of these results: Binding can be weak; no strength is given. Where a sequence is shown, tags or fusion partners need not be part of it.
Columns and labels:
[1] = target: T1, D3 (BiFC fusion from pXY106) (rice (Oryza sativa)) (UniProt Q5VMP0); assay: split reporter; BiFC; Agrobacterium-infiltrated young leaves of Nicotiana benthamiana; YFP fluorescence by confocal microscopy
T1 sequence: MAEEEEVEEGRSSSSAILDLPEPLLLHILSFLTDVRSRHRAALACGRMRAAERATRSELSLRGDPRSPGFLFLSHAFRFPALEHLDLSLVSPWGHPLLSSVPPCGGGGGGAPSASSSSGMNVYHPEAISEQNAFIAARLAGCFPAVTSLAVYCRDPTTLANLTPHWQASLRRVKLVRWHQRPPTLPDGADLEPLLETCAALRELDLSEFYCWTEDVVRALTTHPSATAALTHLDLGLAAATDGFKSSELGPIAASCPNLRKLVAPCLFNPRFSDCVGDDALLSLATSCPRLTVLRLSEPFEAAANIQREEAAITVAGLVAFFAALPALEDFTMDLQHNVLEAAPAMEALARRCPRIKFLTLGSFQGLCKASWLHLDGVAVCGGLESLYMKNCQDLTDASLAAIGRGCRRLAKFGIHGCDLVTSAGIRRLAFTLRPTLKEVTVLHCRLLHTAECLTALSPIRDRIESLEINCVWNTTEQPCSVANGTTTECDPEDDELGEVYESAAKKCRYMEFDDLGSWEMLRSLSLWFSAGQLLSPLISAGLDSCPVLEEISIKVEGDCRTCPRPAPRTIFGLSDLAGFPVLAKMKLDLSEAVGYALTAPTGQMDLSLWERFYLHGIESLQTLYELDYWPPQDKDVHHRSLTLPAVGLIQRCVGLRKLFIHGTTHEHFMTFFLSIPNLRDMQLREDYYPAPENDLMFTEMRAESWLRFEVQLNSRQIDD

[2] = target: T2, D3 (yeast two-hybrid fusion in pDBLeu) (rice (Oryza sativa)) (UniProt Q5VMP0); assay: two-hybrid; yeast strain AH109; pAD502 and pDBLeu fusions; growth on SD medium lacking Leu, Trp and His
T2 sequence: T1 sequence

[3] = target: T3, GST-D3 (rice (Oryza sativa)) (UniProt Q5VMP0); assay: pull-down; GST or D3-GST-coupled beads incubated with MBP-CYC U2 for 3 h at 4 °C; blot with anti-MBP; both purified
T3 sequence: T1 sequence

[4] = target: T3, GST-D3 (rice (Oryza sativa)); assay: pull-down; modified pull-down: MBP-CYC U2s preincubated with OsGSK2-HIS or OsGSK2^K69R-HIS for 1 h at 37 °C in kinase assay buffer (50 mM Tris-HCl pH 7.4, 10 mM MgCl2, 1 mM DTT, 100 μM ATP), then incubated with D3-GST beads; blot with anti-MBP; both purified

In the case of “CYC U2 (BiFC fusion from pXY104) (rice (Oryza sativa))”, the binding [1] is reported as “binds”.
With “CYC U2 (yeast two-hybrid fusion in pAD502) (rice (Oryza sativa))” the binding [2] was “no binding”.
“MBP-CYC U2 (unphosphorylated) (rice (Oryza sativa))” was tested, and the binding [3] was “no binding” and the binding [4] was “no binding”.

Reference: PMC6023860
